Paper PMC10023571, “EGOC inhibits TOROID polymerization by structurally activating TORC1” (Nature Structural & Molecular Biology, 2023)
These are yes or no findings as the source states them, for the method shown. A result given as binding can be weak or reduced; the word gives no strength. Sequences can lack the tags named with a protein.

Amino acid sequences for entries named in this document (tags omitted). A change or cut given only in a name is not applied to a line headed by its entry.
UniProt P38247: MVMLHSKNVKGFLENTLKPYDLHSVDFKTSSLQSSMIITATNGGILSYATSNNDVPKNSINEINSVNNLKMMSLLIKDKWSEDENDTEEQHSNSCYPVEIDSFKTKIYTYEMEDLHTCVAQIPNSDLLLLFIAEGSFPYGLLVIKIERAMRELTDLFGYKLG

Molecular target: T1, Ego1(∆1-111:His6) (S. cerevisiae) (UniProt Q02205)
T1 sequence: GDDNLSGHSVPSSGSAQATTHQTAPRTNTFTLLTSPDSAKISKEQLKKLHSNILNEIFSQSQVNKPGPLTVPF
Assay: SEC; EGOC components co-expressed in E. coli, Ni-NTA by the His6 on Ego1, then Superdex GF200 Increase in 50 mM MES-NaOH pH 6.0, 300 mM NaCl, 0.15% CHAPS, 1 mM MgCl2, 0.5 mM DTT; fractions on Coomassie-stained SDS-PAGE; both purified

binding: binds
Substance: Ego3 (from UniProt P38247)
